PubChem BioAssay AID504784, Drosophila RNAi Screening Center | 2011
Test: 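Search for regulators of lipid droplet storage in oleate-fed fly cells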 (primary screen). Cells: Drosophila Kc167 embryonic cells. Reagent: long dsRNA against Drosophila genes, about 250 ng dsRNA per well. Duration: 4 days. Challenge: cells fed 400 µM oleic acid bound to BSA. Measured: 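Microscope images give a droplet-to-nucleus area ratio, taken as log and converted to a screen-wide B-score; higher values mean greater lipid storage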. Scale: droplet/nuclear area B-score: higher = more stored lipid (overstorage).
In all, the deposit lists about 17,000 reagents; shown is an unselected part of those that have a named target and a result. 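Each column is one replicate's B-score; the combined score over replicates was not deposited, so single values may mislead.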

veil [DRSC06892] | droplet/nuclear area B-score, replicate 1: -0.965; droplet/nuclear area B-score, replicate 2: -0.636
CG6094 [DRSC02927] | droplet/nuclear area B-score, replicate 1: 2.48; droplet/nuclear area B-score, replicate 2: 3.29; droplet/nuclear area B-score, replicate 3: -0.62
CG6094 [DRSC22705] | droplet/nuclear area B-score, replicate 1: 1.54; droplet/nuclear area B-score, replicate 2: 0.275
CG8568 [DRSC20113] | droplet/nuclear area B-score, replicate 1: 0.225; droplet/nuclear area B-score, replicate 2: 1.23
btl [DRSC11331] | droplet/nuclear area B-score, replicate 1: -1.32; droplet/nuclear area B-score, replicate 2: -0.689
ND-20L [DRSC15414] | droplet/nuclear area B-score, replicate 1: -0.645; droplet/nuclear area B-score, replicate 2: 1.38
CR11700 (retired record) [DRSC17794] | droplet/nuclear area B-score, replicate 1: -0.0678; droplet/nuclear area B-score, replicate 2: 0.114
dysc [DRSC10273] | droplet/nuclear area B-score, replicate 1: 0.501; droplet/nuclear area B-score, replicate 2: -0.57; droplet/nuclear area B-score, replicate 3: -0.613
dysc [DRSC11040] | droplet/nuclear area B-score, replicate 1: -1.21; droplet/nuclear area B-score, replicate 2: 0.801
dysc [DRSC22334] | droplet/nuclear area B-score, replicate 1: -0.398; droplet/nuclear area B-score, replicate 2: -0.545
dysc [DRSC22824] | droplet/nuclear area B-score, replicate 1: -0.747; droplet/nuclear area B-score, replicate 2: 0.873
14-3-3zeta [DRSC05028] | droplet/nuclear area B-score, replicate 1: -1.82; droplet/nuclear area B-score, replicate 2: -0.0183
drongo [DRSC00814] | droplet/nuclear area B-score, replicate 1: -1.62; droplet/nuclear area B-score, replicate 2: -1.63
CG7564 [DRSC10880] | droplet/nuclear area B-score, replicate 1: -2.94; droplet/nuclear area B-score, replicate 2: -2.22
CG8441 [DRSC07180] | droplet/nuclear area B-score, replicate 1: -1.36; droplet/nuclear area B-score, replicate 2: -2.19
Fic [DRSC03247] | droplet/nuclear area B-score, replicate 1: -0.673; droplet/nuclear area B-score, replicate 2: -0.597
Ogdh [DRSC09854] | droplet/nuclear area B-score, replicate 1: 1.62; droplet/nuclear area B-score, replicate 2: -0.0348; droplet/nuclear area B-score, replicate 3: -1.32
Ogdh [DRSC09855] | droplet/nuclear area B-score, replicate 1: 2.15; droplet/nuclear area B-score, replicate 2: 2.72
CG15202 [DRSC19649] | droplet/nuclear area B-score, replicate 1: 0.0982; droplet/nuclear area B-score, replicate 2: -0.111; droplet/nuclear area B-score, replicate 3: 0.26
Eig71Ec [DRSC11150] | droplet/nuclear area B-score, replicate 1: 1.51; droplet/nuclear area B-score, replicate 2: -0.213
CG17349 [DRSC02610] | droplet/nuclear area B-score, replicate 1: 0.357; droplet/nuclear area B-score, replicate 2: 0.0423
AstA-R2 [DRSC14171] | droplet/nuclear area B-score, replicate 1: 0.078; droplet/nuclear area B-score, replicate 2: -0.27
CG11360 [DRSC17134] | droplet/nuclear area B-score, replicate 1: 0.375; droplet/nuclear area B-score, replicate 2: 0.832
Ppox [DRSC17033] | droplet/nuclear area B-score, replicate 1: -0.132; droplet/nuclear area B-score, replicate 2: -0.0395

6 entries from above, limited to “droplet/nuclear area B-score, replicate 1”:
dysc [DRSC10273]	0.501
dysc [DRSC11040]	-1.21
dysc [DRSC22334]	-0.398
dysc [DRSC22824]	-0.747
14-3-3zeta [DRSC05028]	-1.82
drongo [DRSC00814]	-1.62

Additional records follow:
CG12420 [DRSC14514] | droplet/nuclear area B-score, replicate 1: 0.0274; droplet/nuclear area B-score, replicate 2: -0.19; droplet/nuclear area B-score, replicate 3: 1.65
Taf5 [DRSC07562] | droplet/nuclear area B-score, replicate 1: -2.2; droplet/nuclear area B-score, replicate 2: -0.509
vkg [DRSC03632] | droplet/nuclear area B-score, replicate 1: 2.37; droplet/nuclear area B-score, replicate 2: -2.54
Cp15 [DRSC11118] | droplet/nuclear area B-score, replicate 1: 0.442; droplet/nuclear area B-score, replicate 2: 0.236
Dp1 [DRSC07403] | droplet/nuclear area B-score, replicate 1: 0.262; droplet/nuclear area B-score, replicate 2: 0.474
CG18530 [DRSC15341] | droplet/nuclear area B-score, replicate 1: -0.788; droplet/nuclear area B-score, replicate 2: 0.202
Tet [DRSC08550] | droplet/nuclear area B-score, replicate 1: -0.487; droplet/nuclear area B-score, replicate 2: 0.802
fz [DRSC11348] | droplet/nuclear area B-score, replicate 1: -0.587; droplet/nuclear area B-score, replicate 2: -0.025
gcm2 [DRSC03538] | droplet/nuclear area B-score, replicate 1: 0.432; droplet/nuclear area B-score, replicate 2: 0.00384
cactin [DRSC20576] | droplet/nuclear area B-score, replicate 1: 0.853; droplet/nuclear area B-score, replicate 2: 1.29
CG31142 [DRSC13647] | droplet/nuclear area B-score, replicate 1: -0.881; droplet/nuclear area B-score, replicate 2: -0.0154
CG9961 [DRSC00738] | droplet/nuclear area B-score, replicate 1: 1.32; droplet/nuclear area B-score, replicate 2: -1
CG9961 [DRSC23343] | droplet/nuclear area B-score, replicate 1: -0.0357; droplet/nuclear area B-score, replicate 2: 0.909
CG15461 [DRSC20532] | droplet/nuclear area B-score, replicate 1: 1.58; droplet/nuclear area B-score, replicate 2: -1.91
Hr38 [DRSC03345] | droplet/nuclear area B-score, replicate 2: 0.345
Hr38 [DRSC23230] | droplet/nuclear area B-score, replicate 1: -0.0451; droplet/nuclear area B-score, replicate 2: -0.393
